Values of other authors, collected in patent US20010046961A1, “Method for the treatment of solid tumors by albumin microparticles incorporating paclitaxel” (ACS DOBFAR S.p.A., priority 2000, published 2001).

solubility in water: insoluble in water
SMILES: CC(=O)O[C@H]1C(=O)[C@@]2(C)[C@H]([C@H](OC(=O)c3ccccc3)[C@]3(O)C[C@H](OC(=O)[C@H](O)[C@@H](NC(=O)c4ccccc4)c4ccccc4)C(C)=C1C3(C)C)[C@]1(OC(C)=O)CO[C@@H]1C[C@@H]2O [Paclitaxel]
